Measured data: PubChem BioAssay AID504764 (Drosophila RNAi Screening Center, 2011)
In all, the deposit lists about 22,000 reagents; shown is an unselected part of those that have a named target and a result. Over the whole deposit, 403 (1.9%) got an active call. 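Unnormalised raw counts per well; ratio z-scores behind the hit calls and whether each hit raises or lowers signal are not deposited.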 Unmarked entries are inactive. Names joined by + are all predicted targets of the reagent. Reagent sequences are not shown. Not stated in the record: the amount of reagent.

- Screen: 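Genes whose knock-down alters Notch-dependent transcription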 (primary screen)
- System: Drosophila Kc167 cells
- Knock-down reagent: long dsRNA against Drosophila genes
- Time to read-out: about 5 days (4 days dsRNA, then 24 h after transfection)
- Challenge: transfection of constitutively active membrane-tethered Notch lacking the extracellular domain, read 24 h later
- Detection: 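Light from a Notch-responsive E(spl)m3 luciferase reporter under active Notch, with control-promoter and no-Notch reporter wells to normalise; raw counts from paired wells a and b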
- Reading the numbers: induced reporter light, run 1, well a and induced reporter light, run 1, well b: higher = more light from the Notch target reporter with active Notch; control promoter light, run 1, well a and control promoter light, run 1, well b: higher = more light from the viral control promoter (cell number, transfection, viability); uninduced reporter light, run 1, well a: higher = more light from the Notch target reporter without active Notch
- Active means: 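Hit if the duplicate-averaged log2 ratio of induced to control-promoter light gives a plate-wise z beyond ±2, or induced to uninduced beyond ±1.8; weak-control or discordant-duplicate wells dropped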
- Calls: active = modifier hit (raised or lowered Notch signal); inactive = not a hit

| Target gene | dsRNA | induced reporter light, run 1, well a | induced reporter light, run 1, well b | control promoter light, run 1, well a | control promoter light, run 1, well b | uninduced reporter light, run 1, well a |
| --- | --- | --- | --- | --- | --- | --- |
| l(3)76BDm (lethal (3) 76BDm) | DRSC11047 | 1.35e5 | 93070 | 88420 | 92365 | 9855 |
| CG2930 | DRSC17730 | 44255 | 42450 | 44520 | 47765 | 2750 |
| Cdk5 (Cyclin-dependent kinase 5) | DRSC07359 | 1.08e5 | 93465 | 1.88e5 | 2.04e5 | 8875 |
| slow (slowdown) | DRSC08589 | 1.35e5 | 1.41e5 | 1.04e5 | 56135 | 12230 |
| slow (slowdown) | DRSC08590 | 2.07e5 | 2.55e5 | 2.90e5 | 2.73e5 | 12480 |
| CG34345 | DRSC02126 | 1.56e5 | 1.52e5 | 1.70e5 | 1.75e5 | 10765 |
| Coq2 (Coenzyme Q biosynthesis protein 2) | DRSC16516 | 1.10e5 | 99265 | 98150 | 89505 | 7680 |
| Prx2 (Peroxiredoxin 2) | DRSC20256 | 1.21e5 | 1.16e5 | 1.94e5 | 1.69e5 | 8475 |
| CG3097 | DRSC18275 | 41920 | 40450 | 76600 | 62540 | 3335 |
| Neto (Neuropilin and tolloid-like) | DRSC18982 | 2.02e5 | 1.92e5 | 3.39e5 | 3.05e5 | 16465 |
| Neto (Neuropilin and tolloid-like) | DRSC19503 | 38740 | 39450 | 45130 | 44740 | 3310 |
| Neto (Neuropilin and tolloid-like) | DRSC19716 | 1.42e5 | 1.25e5 | 2.40e5 | 2.50e5 | 7610 |
| Neto (Neuropilin and tolloid-like) | DRSC19717 | 1.20e5 | 1.21e5 | 2.25e5 | 1.91e5 | 10855 |
| Hmt-1 (Heavy metal tolerance factor 1) | DRSC15555 | 2.39e5 | 3.09e5 | 4.26e5 | 4.58e5 | 19775 |
| CG3430 | DRSC02713 | 2.05e5 | 1.98e5 | 1.81e5 | 1.77e5 | 18615 |
| Vago | DRSC19833 | 1.25e5 | 1.12e5 | 2.65e5 | 2.11e5 | 9740 |
| pre-mod(mdg4)-Z + mod(mdg4) + pre-mod(mdg4)-T | DRSC13477 | 67130 | 52610 | 79975 | 61480 | 8350 |
| pre-mod(mdg4)-Z + mod(mdg4) + pre-mod(mdg4)-T | DRSC17001 | 1.94e5 | 1.67e5 | 2.56e5 | 2.59e5 | 16825 |
| Irk3 (Inwardly rectifying potassium channel 3) | DRSC02047 | 1.42e5 | 82295 | 1.14e5 | 1.60e5 | 6778 |
| CG33160 | DRSC08197 | 89110 | 1.14e5 | 2.04e5 | 1.85e5 | 6055 |
| jef (jet fuel) | DRSC06198 | 1.34e5 | 1.50e5 | 2.15e5 | 1.86e5 | 11460 |
| CG12679 | DRSC20493 | 83930 | 1.25e5 | 1.22e5 | 1.08e5 | 11040 |
| amd (alpha methyl dopa-resistant) | DRSC02608 | 39670 | 33850 | 28235 | 27370 | 2285 |
| amd (alpha methyl dopa-resistant) | DRSC03483 | 51055 | 44070 | 43880 | 46640 | 3315 |
| Trax (Translin associated factor X) | DRSC15709 | 1.56e5 | 1.42e5 | 1.14e5 | 1.16e5 | 10130 |
| Der-2 (Derlin-2) | DRSC15021 | 2.34e5 | 2.01e5 | 1.98e5 | 2.10e5 | 19890 |
| ND-B17 (NADH dehydrogenase (ubiquinone) B17 subunit) | DRSC01981 | 96855 | 91720 | 1.16e5 | 1.43e5 | 7630 |
| CG10984 | DRSC09817 | 1.23e5 | 86525 | 66895 | 35720 | 9355 |
| CG1571 | DRSC18068 | 2.38e5 | 1.93e5 | 4.03e5 | 3.35e5 | 15105 |
| Est-6 (Esterase 6) | DRSC11162 | 1.62e5 | 1.44e5 | 2.36e5 | 2.44e5 | 8370 |
| CG31681 | DRSC00107 | 92905 | 87430 | 1.24e5 | 1.10e5 | 6745 |
| CG17896 | DRSC18502 | 2.18e5 | 2.47e5 | 3.16e5 | 3.26e5 | 15865 |
| CG9686 | DRSC18439 | 1.19e5 | 1.24e5 | 2.69e5 | 2.52e5 | 9360 |
| CG3045 | DRSC04331 | 1.64e5 | 2.21e5 | 1.69e5 | 2.07e5 | 14740 |
| CG12194 | DRSC00345 | 2.37e5 | 1.64e5 | 2.51e5 | 2.37e5 | 13885 |
| BicC (Bicaudal C) | DRSC02005 | 98450 | 87525 | 97180 | 94500 | 7730 |
| CG42523 | DRSC00251 | 1.90e5 | 1.58e5 | 2.03e5 | 1.87e5 | 12650 |
| Smg6 | DRSC16029 | 5705 | 6625 | 6950 | 6405 | 540 |
| CG9498 | DRSC03235 | 2.19e5 | 2.12e5 | 1.95e5 | 2.05e5 | 11742 |
| sosie | DRSC14636 | 1.40e5 | 1.43e5 | 1.52e5 | 1.33e5 | 11495 |
| E2f1 (E2F transcription factor 1) | DRSC16655 | 87915 | 76840 | 1.03e5 | 89330 | 5315 |
| CG6614 | DRSC02974 | 2.34e5 | 2.10e5 | 2.34e5 | 2.08e5 | 17525 |

Continued; the last 7 above are carried over.
| Target gene | dsRNA | induced reporter light, run 1, well a | induced reporter light, run 1, well b | control promoter light, run 1, well a | control promoter light, run 1, well b | uninduced reporter light, run 1, well a |
| --- | --- | --- | --- | --- | --- | --- |
| BicC (Bicaudal C) | DRSC02005 | 98450 | 87525 | 97180 | 94500 | 7730 |
| CG42523 | DRSC00251 | 1.90e5 | 1.58e5 | 2.03e5 | 1.87e5 | 12650 |
| Smg6 | DRSC16029 | 5705 | 6625 | 6950 | 6405 | 540 |
| CG9498 | DRSC03235 | 2.19e5 | 2.12e5 | 1.95e5 | 2.05e5 | 11742 |
| sosie | DRSC14636 | 1.40e5 | 1.43e5 | 1.52e5 | 1.33e5 | 11495 |
| E2f1 (E2F transcription factor 1) | DRSC16655 | 87915 | 76840 | 1.03e5 | 89330 | 5315 |
| CG6614 | DRSC02974 | 2.34e5 | 2.10e5 | 2.34e5 | 2.08e5 | 17525 |
| CG15764 | DRSC18070 | 1.13e5 | 1.49e5 | 2.82e5 | 2.33e5 | 10750 |
| CG11403 | DRSC18532 | 1.53e5 | 2.07e5 | 2.07e5 | 2.02e5 | 11020 |
| sun (stunted) | DRSC20140 | 56520 | 47570 | 60930 | 45915 | 6670 |
| cort (cortex) | DRSC02148 | 2.16e5 | 2.05e5 | 3.60e5 | 3.07e5 | 14610 |
| Dus3 (Dihydrouridine synthase 3) | DRSC02059 | 17542 | 31940 | 52805 | 39775 | 2950 |
| Jon65Ai (Jonah 65Ai) | DRSC09731 | 2.47e5 | 1.95e5 | 2.74e5 | 2.15e5 | 10170 |
| CG5122 | DRSC02816 | 1.38e5 | 1.40e5 | 1.33e5 | 1.50e5 | 12000 |
| CG14572 | DRSC11733 | 1.45e5 | 1.33e5 | 1.37e5 | 1.03e5 | 8645 |
| GC2 | DRSC14476 | 92600 | 74340 | 85200 | 54085 | 5085 |
| Hacd1 (3-hydroxyacyl-CoA dehydratase 1) | DRSC02988 | 2.42e5 | 2.45e5 | 2.04e5 | 2.32e5 | 17460 |
| BBS1 (Bardet-Biedl syndrome 1) | DRSC10196 | 1.54e5 | 1.76e5 | 2.29e5 | 2.48e5 | 13170 |
| ND-51L2 (NADH dehydrogenase (ubiquinone) 51 kDa subunit-like 2) | DRSC07080 | 92415 | 94380 | 1.06e5 | 95695 | 7005 |
| CG34107 | DRSC14554 | 68360 | 66380 | 68655 | 56270 | 4270 |
| RPA2 (Replication protein A2) | DRSC03184 | 1.79e5 | 1.52e5 | 1.20e5 | 1.02e5 | 13820 |
| CG15923 | DRSC15129 | 1.91e5 | 1.67e5 | 2.24e5 | 2.36e5 | 11315 |
| CG13847 | DRSC14697 | 10955 | 10840 | 9870 | 10695 | 6950 |
| CG13375 | DRSC18621 | 1.23e5 | 1.27e5 | 1.90e5 | 2.02e5 | 9210 |
| Ebp (Ejaculatory bulb protein) | DRSC04048 | 2.51e5 | 1.99e5 | 1.90e5 | 1.63e5 | 16750 |
| CG5921 | DRSC17431 | 80185 | 88505 | 89815 | 80020 | 6530 |
| CG5921 | DRSC18390 | 35165 | 37355 | 41895 | 41165 | 2350 |
| CG11839 | DRSC14398 | 1.67e5 | 1.18e5 | 1.76e5 | 1.57e5 | 10500 |
| Dyrk3 (Dual-specificity tyrosine phosphorylation-regulated kinase 3) | DRSC21055 | 72010 | 74285 | 90070 | 69035 | 5490 |
